Reference: PubChem BioAssay AID743454 (Peter MacCallum Cancer Centre, 2014)

Purpose: 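Search for knock-downs that restore vorinostat killing in resistant colon cancer cells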 (primary screen)
Cells: human HCT116-VR colon cancer cells, selected for vorinostat resistance
Reagent: siRNA pool against human genes, 40 nM siRNA pool
Time to read-out: vorinostat for 24 h, read-out about 72 h after transfection
Conditions: vorinostat at 2.5 µM final
Measured: 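Two measures, CellTiter-Fluor viability and luminescent caspase 3/7 activity, each as fold change against same-plate mock wells, mean of duplicates, then screen-wide robust z-score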
Reading the numbers: viability robust z-score: higher = more viable cells than screen typical; caspase robust z-score: higher = more caspase 3/7 activity than screen typical
Call rule: 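Hits are knock-downs in viability class RV1/RV2 or caspase class CA1/CA2, excluding ones that killed cells in the no-drug cell-count arm; hits then retested with single siRNAs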
Shown is a random part of about 18,000 reagents tested. 450 of all reagents (2.5%) count as active. 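Single biological run; no consistent viability z cut-off exists, so the class columns, not z-scores, define the calls.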 Unmarked entries are inactive.

viability hit class	caspase hit class	viability robust z-score	caspase robust z-score	gene
no change	no change	-1.24	0.67	GP2 (glycoprotein 2)
no change	no change	0.36	0.18	PGLYRP2 (peptidoglycan recognition protein 2)
no change	no change	-1.33	4.04	KLB (klotho beta)
no change	no change	-0.66	-0.48	NPY2R (neuropeptide Y receptor Y2)
no change	no change	0.5	2.42	ABCC11 (ATP binding cassette subfamily C member 11)
no change	no change	0.16	0.18	RPGRIP1L (RPGRIP1 like)
no change	no change	-2.61	-0.22	SARM1 (sterile alpha and TIR motif containing 1)
no change	no change	-0.46	2.5	MAGEB2 (MAGE family member B2)
no change	no change	0.6	-0.61	TMEM98 (transmembrane protein 98)
no change	no change	0.02	1.48	R3HDM4 (R3H domain containing 4)
no change	no change	1.69	1.84	KRT28 (keratin 28)
no change	no change	0.79	3.12	ISCA2 (iron-sulfur cluster assembly 2)
no change	no change	-1.02	-0.59	AGXT2 (alanine--glyoxylate aminotransferase 2)
no change	no change	-0.15	0.76	SDHC (succinate dehydrogenase complex subunit C)
no change	no change	0.9	-1.15	TRPM6
no change	no change	-0.82	1.77	CORIN (corin, serine peptidase)
no change	no change	-0.31	-0.18	ATP9A (ATPase phospholipid transporting 9A)
no change	no change	-1.73	-0.71	DDX21 (DExD-box helicase 21)
no change	no change	-0.59	2.48	TDRD1 (tudor domain containing 1)
no change	no change	0.08	0.24	SEC23A (SEC23 homolog A, COPII component)
no change	no change	-0.32	-1.02	TIPARP (TCDD inducible poly(ADP-ribose) polymerase)
no change	no change	-0.24	0.98	LMAN2 (lectin, mannose binding 2)
no change	no change	0.5	1.47	GJC3 (gap junction protein gamma 3)
no change	no change	-0.29	1.4	SLC26A8
no change	no change	-1.29	-0.56	CD160 (CD160 molecule)
no change	no change	0.34	1.86	APOBEC3H (apolipoprotein B mRNA editing enzyme catalytic subunit 3H)
no change	no change	-1.36	-0.17	BUD23 (BUD23 rRNA methyltransferase and ribosome maturation factor)
no change	no change	-0.05	1.71	MYOCD (myocardin)
no change	no change	0.84	-0.34	NDST1 (N-deacetylase and N-sulfotransferase 1)
no change	no change	-0.57	1	HJV (hemojuvelin BMP co-receptor)
no change	no change	2.14	0.02	TMEM167A (transmembrane protein 167A)
no change	no change	-3.62	0.11	EFNB1 (ephrin B1)
no change	no change	0.71	-0.29	FST (follistatin)
no change	no change	0.32	0.57	LYPD5 (LY6/PLAUR domain containing 5)
no change	no change	0.18	3.52	LMNTD2 (lamin tail domain containing 2)
no change	no change	0.38	-0.76	LIMK2 (LIM domain kinase 2)
no change	no change	0.72	0.62	NFE2 (nuclear factor, erythroid 2)
no change	no change	-0.26	0.5	KCNJ11 (potassium inwardly rectifying channel subfamily J member 11)
no change	no change	-0.48	-0.98	KDM3A (lysine demethylase 3A)
RV2 (reduced viability) (active)	no change	-4.08	0.72	TECTB (tectorin beta)
no change	no change	1.34	-0.3	TBC1D3B (TBC1 domain family member 3B)
no change	no change	-0.3	1.42	PLA2G2D (phospholipase A2 group IID)
no change	no change	1.44	0.16	SNX16 (sorting nexin 16)
no change	no change	0.62	-0.38	GOT1L1 (glutamic-oxaloacetic transaminase 1 like 1)
no change	no change	1.36	-0.95	POU2F3 (POU class 2 homeobox 3)
no change	no change	0.17	-0.28	CDS1 (CDP-diacylglycerol synthase 1)
no change	no change	0.58	3.33	ZNF544 (zinc finger protein 544)
no change	no change	-0.42	0.95	RNF145 (ring finger protein 145)
no change	no change	-0.12	-0.68	SLC8A3
no change	no change	-2.13	0.5	OR8U9 (olfactory receptor family 8 subfamily U member 9)
no change	no change	0.72	0.38	S100G (S100 calcium binding protein G)
no change	no change	1.26	-0.16	GPCPD1 (glycerophosphocholine phosphodiesterase 1)
no change	no change	0.52	-0.88	GBA3 (glucosylceramidase beta 3 (gene/pseudogene))
no change	no change	-4.42	-1.64	UBA52 (ubiquitin A-52 residue ribosomal protein fusion product 1)
no change	no change	0	-0.51	EXOC2 (exocyst complex component 2)
no change	no change	0	-0.03	SOX18 (SRY-box transcription factor 18)
no change	no change	1	-0.94	MVK (mevalonate kinase)
no change	no change	-1.77	0.2	FEZF1 (FEZ family zinc finger 1)
no change	no change	1.56	1.34	ATP23
no change	no change	0.28	-1.09	GRAMD1B (GRAM domain containing 1B)
no change	no change	-0.16	1	AKAP8L (A-kinase anchoring protein 8 like)
no change	no change	-0.61	0.46	LYPLA1 (lysophospholipase 1)
no change	no change	-0.61	-0.98	ESF1 (ESF1 nucleolar pre-rRNA processing protein)
no change	no change	0.25	1.66	KLHL30 (kelch like family member 30)
no change	no change	0.72	0.23	IFIT3 (interferon induced protein with tetratricopeptide repeats 3)
no change	no change	-0.4	1.86	GNG4 (G protein subunit gamma 4)
no change	no change	0.4	1.21	SHOC2 (SHOC2 leucine rich repeat scaffold protein)
no change	no change	1.33	1.56	CLCA2 (chloride channel accessory 2)
no change	no change	-1.46	-0.02	PAGE3 (PAGE family member 3)
no change	no change	0.52	-0.15	SOHLH2
no change	no change	0.6	-0.48	CSNK1A1L (casein kinase 1 alpha 1 like)
no change	no change	-1.12	0.2	STX2 (syntaxin 2)
no change	no change	-2.42	-0.34	MMP11 (matrix metallopeptidase 11)
